# Test results taken from article PMC7819943, “Rice protein-binding microarrays: a tool to detect cis-acting elements near promoter regions in rice”.
# Protein sequences, listed by entry. Tags and fused reporters are not part of them.
# UniProt Q0JBA9, entry or part of it: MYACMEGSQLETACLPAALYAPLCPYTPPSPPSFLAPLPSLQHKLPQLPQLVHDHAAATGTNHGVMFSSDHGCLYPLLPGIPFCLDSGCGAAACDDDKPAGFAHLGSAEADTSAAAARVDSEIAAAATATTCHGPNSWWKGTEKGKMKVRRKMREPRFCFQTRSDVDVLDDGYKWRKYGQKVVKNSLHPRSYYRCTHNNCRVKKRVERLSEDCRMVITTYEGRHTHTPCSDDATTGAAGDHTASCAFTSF
# Some of the results follow.
# Target: OsWRKY34 (Oryza sativa, UniProt Q0JBA9 1-250)
# Test: protein-binding microarray (RPBM); PBS, 2% BSA, 51.3 ng/ul salmon testes DNA, 50 uM zinc acetate, 200 nM TF, 25 C, 1 h; high values mean tight binding
# Details: protein: recombinant; tags: N-terminal polyhistidine and DsRed monomer fusion (pET32a); label: CyDye5-dUTP incorporated in the synthesized complementary strand; 3' TTTTT single-stranded linker to array surface; dsDNA, one strand shown
# Summary of the method: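 Transcription factors were made in E. coli BL21-CodonPlus as N-terminal fusions to a polyhistidine tag and DsRed, then purified on Ni–NTA. After primer extension with Cy5-dUTP and blocking with 2% BSA, a custom Agilent array was exposed for 1 h at 25 °C to 200 nM protein in PBS, 2% BSA, salmon testes DNA and 50 µM zinc acetate. Washed arrays were scanned on an Axon 4000B, and the binding signal is per-feature fluorescence intensity in arbitrary units.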
row,Sequence,binding signal
1,GACTTCACTCACACGCGCACTCATATCCACGTACGATCTCCGGAGTCACCTAGTGCAG,8740 fluorescence intensity (a.u.)
2,GTGTCTCTGGTTAATACTAATTGGAGAGGCCTCTCCAATTCGGAGTCACCTAGTGCAG,8160 fluorescence intensity (a.u.)
3,TTGCTCTTGCTCGTAGTCGTAGGGTGTTTGGCCGTTTGACCGGAGTCACCTAGTGCAG,9510 fluorescence intensity (a.u.)
4,TGGCTATCCTTATGTGCTTATTTTTTTATTGTTCCTTCAGCGGAGTCACCTAGTGCAG,8980 fluorescence intensity (a.u.)
5,ATCTCCCAAAGCCTAGTGCAAATCACGTTCATTGTTTCTTCGGAGTCACCTAGTGCAG,9350 fluorescence intensity (a.u.)
6,ATAACATCCCCACTTGCCCCAACCATGTCGGCGCCGCCGCCGGAGTCACCTAGTGCAG,8280 fluorescence intensity (a.u.)
7,TCGCCGAAGCCCGTCACCATCGCGTCACCATCGCGTCCGACGGAGTCACCTAGTGCAG,9580 fluorescence intensity (a.u.)
8,CACGCTTCGGAGAATTTCCGACAATACACATACTCCTACTCGGAGTCACCTAGTGCAG,8990 fluorescence intensity (a.u.)
9,CTGTTCATATTCAACGTTTGACCATTCGTATTAATTGAAACGGAGTCACCTAGTGCAG,8520 fluorescence intensity (a.u.)
10,GGAGCTAGGGTCCGCTTTGCAGCAGGAGGGGTGGGGCACACGGAGTCACCTAGTGCAG,13800 fluorescence intensity (a.u.)
11,ATCAGCCAAACCCCATCCCTAACTCCATGGCTTATCTATGCGGAGTCACCTAGTGCAG,8200 fluorescence intensity (a.u.)
12,ATTCTGTTGTTAACTCTGCCTTCAGCTGCATTTTCTTATTCGGAGTCACCTAGTGCAG,14500 fluorescence intensity (a.u.)
13,TATTATTATGAATATATACAAATCCTTATCGATCAATATTCGGAGTCACCTAGTGCAG,8330 fluorescence intensity (a.u.)
14,CCGTTACTGGCTCTTTCATTGTCTTCTTTCATTGACTCCTCGGAGTCACCTAGTGCAG,11300 fluorescence intensity (a.u.)
15,CACCTCCGACATTTGCTCTCAAACTTAAACATTTCGCTTCCGGAGTCACCTAGTGCAG,9060 fluorescence intensity (a.u.)
16,ATTTTTCCCTTGATCTACACATCTTGATCTTTTTTTTTTCCGGAGTCACCTAGTGCAG,9920 fluorescence intensity (a.u.)
17,CTTAACCATCCATTCTTCGCATCTCTTATCTTTTCAAACCCGGAGTCACCTAGTGCAG,12700 fluorescence intensity (a.u.)
18,GGATTCTAATTTTCCTTCTAATTGCTATGTTATCTTCCAACGGAGTCACCTAGTGCAG,9880 fluorescence intensity (a.u.)
19,GTACAAACGCCTCATTATTGATGCTGCAACTTCTCCTGTTCGGAGTCACCTAGTGCAG,9060 fluorescence intensity (a.u.)
20,GAGCACACATCTCTCATAGGCCGCACATGTCAAATTCTAACGGAGTCACCTAGTGCAG,8240 fluorescence intensity (a.u.)
21,GATGGATGGGGTGGGGACTGGGGATGGATGGAGGCGGCGGCGGAGTCACCTAGTGCAG,21300 fluorescence intensity (a.u.)

row,Sequence,binding signal
1,TTTCTTCTTCTCTTTCCATGTCCTCTTTCTCTGCTTTTTACGGAGTCACCTAGTGCAG,11900 fluorescence intensity (a.u.)
2,ATTCGTTGGACTGCTGTCCTGTTTTGTTCCTTTTTTTTCCCGGAGTCACCTAGTGCAG,8290 fluorescence intensity (a.u.)
3,ATGAATGGTCAAACATGTTTAAAAAAGTCAACGGCGTCAACGGAGTCACCTAGTGCAG,15300 fluorescence intensity (a.u.)
4,CCACTTGATGCCATTATATCTTTTTGGGAGTGTTTAGATTCGGAGTCACCTAGTGCAG,8270 fluorescence intensity (a.u.)
5,CCGCTGATGCCCACAGGTTGTCGCTGTCATGCTTTTTTTCCGGAGTCACCTAGTGCAG,12100 fluorescence intensity (a.u.)
6,GCTGTTCTTGCTGATTTCAGTCTTCTTCTTCCGGTGGTCGCGGAGTCACCTAGTGCAG,9400 fluorescence intensity (a.u.)
7,TGAAACATCGCTCATATTTTTACTGGTATCCTCGATTTTACGGAGTCACCTAGTGCAG,9040 fluorescence intensity (a.u.)
8,TGTATATTCTGATCAAACATTGGCGTCTACTACTCTACTACGGAGTCACCTAGTGCAG,8030 fluorescence intensity (a.u.)
9,CAACTGGGGAGCAAGATAGGGGAGGAAAGACAGACTTATTCGGAGTCACCTAGTGCAG,8980 fluorescence intensity (a.u.)
10,CCGTCAGTTCTCTCTTCTCTCTTCTTCTTCTGACGTCGCCCGGAGTCACCTAGTGCAG,8170 fluorescence intensity (a.u.)
11,GCGCTGTCAGTGTGTGGGTGGTAGTATATTTTTTTCTTTTCGGAGTCACCTAGTGCAG,12500 fluorescence intensity (a.u.)
12,GCACTCGTTCGGCTTCTACTATATAAGATAGACATCGTACCGGAGTCACCTAGTGCAG,8650 fluorescence intensity (a.u.)
13,GAGCCAGCTGCTCCCTAATCATCATCACTTACATTATTCTCGGAGTCACCTAGTGCAG,9740 fluorescence intensity (a.u.)
14,TTCTTTCCTTTGTATTCTCGTGCGCGCATAGCAACTGCAACGGAGTCACCTAGTGCAG,8100 fluorescence intensity (a.u.)
15,TCCAATGCATGCCGACTCTTTGAGTCCCCATTCGATTCGACGGAGTCACCTAGTGCAG,9470 fluorescence intensity (a.u.)
16,GTGTTTTTTCCTTCCTAATTTAAAAGCATTTTTCACATTACGGAGTCACCTAGTGCAG,8150 fluorescence intensity (a.u.)
17,TGTGGAAGAATGGGTGTGTTGATTGATGTGATTTAAATTACGGAGTCACCTAGTGCAG,8960 fluorescence intensity (a.u.)
18,CCACTTCATTCCCTACCACGCCGTCATCCATGGCCGCCGGCGGAGTCACCTAGTGCAG,12700 fluorescence intensity (a.u.)
19,CTTTGCAGTTTTGACACCCTGTGGGACGTCTACCCAGCGCCGGAGTCACCTAGTGCAG,8290 fluorescence intensity (a.u.)
20,CTCGTCGCCGATCCGATCCGCCTCCGCCTCCGCCTCGCGGCGGAGTCACCTAGTGCAG,10100 fluorescence intensity (a.u.)
21,ACCCTAAGGGTCTCATCTTTTCGCTTATACTTATCAAACACGGAGTCACCTAGTGCAG,8100 fluorescence intensity (a.u.)

# Pulled one by one from the entries so far, 4 records:
row,Sequence,binding signal
7,TGAAACATCGCTCATATTTTTACTGGTATCCTCGATTTTACGGAGTCACCTAGTGCAG,9040 fluorescence intensity (a.u.)
3,TTGCTCTTGCTCGTAGTCGTAGGGTGTTTGGCCGTTTGACCGGAGTCACCTAGTGCAG,9510 fluorescence intensity (a.u.)
9,CAACTGGGGAGCAAGATAGGGGAGGAAAGACAGACTTATTCGGAGTCACCTAGTGCAG,8980 fluorescence intensity (a.u.)
4,TGGCTATCCTTATGTGCTTATTTTTTTATTGTTCCTTCAGCGGAGTCACCTAGTGCAG,8980 fluorescence intensity (a.u.)

# Later entries.

row,Sequence,binding signal
1,TTTTTTCATTCGTGTCCAAAAACCCCTTCCGACATCCGGTCGGAGTCACCTAGTGCAG,8330 fluorescence intensity (a.u.)
2,GTCATGTTTAGGGGATGGTATGGAAGGGGAAAACAGTGTGCGGAGTCACCTAGTGCAG,8280 fluorescence intensity (a.u.)
3,AACGTTTGACCACTCGTCTTATTTAATTTTTTTTTGTAAACGGAGTCACCTAGTGCAG,8410 fluorescence intensity (a.u.)
4,CACCCATCGATATCCATCTCCATCTCATCTCGCCACCCAACGGAGTCACCTAGTGCAG,10300 fluorescence intensity (a.u.)
5,CCACCGCCGCCTCCGCGTCCCTCTGCCTCACCTCGACGCCCGGAGTCACCTAGTGCAG,12100 fluorescence intensity (a.u.)
6,CACACACAAACTTTTAACTTTTTCGTCACATCGTTCCAATCGGAGTCACCTAGTGCAG,8920 fluorescence intensity (a.u.)
7,AGAGCTGCACAAGGTTTCTTTTATTGTTTGCTTATCTATTCGGAGTCACCTAGTGCAG,8880 fluorescence intensity (a.u.)
8,GGTGGTTGTGTTTTCACATTCAGTAGGGTGGTGCACCGTACGGAGTCACCTAGTGCAG,8740 fluorescence intensity (a.u.)
9,CGCCGCCGCATCTCCTCCTTCCTCTCTTGGCAACTGTCGGCGGAGTCACCTAGTGCAG,8300 fluorescence intensity (a.u.)
10,AATATTCGACGCCGTTCACTTTTTTAAATATGTTTGACCACGGAGTCACCTAGTGCAG,9820 fluorescence intensity (a.u.)
11,TCAGATAATTTTTTTTCACATTGATCTCGATTTTGGTTTGCGGAGTCACCTAGTGCAG,10500 fluorescence intensity (a.u.)
12,GGGCGGCATCTCTCGCGCAGATCCCCACGCTTTTTCTCCGCGGAGTCACCTAGTGCAG,10100 fluorescence intensity (a.u.)
13,GTTCATCAATCTACTGTACTGGCCTCCTTCTCAGCTCTCACGGAGTCACCTAGTGCAG,9300 fluorescence intensity (a.u.)
14,GAAAGCTTGCAATCCGAGCATCTGTTTGTTCTATTTGTTTCGGAGTCACCTAGTGCAG,8520 fluorescence intensity (a.u.)
15,GCGCCCATGCCCACCACCGCCGCCGCCGCCGCTTCCGATGCGGAGTCACCTAGTGCAG,8590 fluorescence intensity (a.u.)
16,ACTGTGTTCTTTAGTCTATTTTCCCAACTTCCCCTTTCTTCGGAGTCACCTAGTGCAG,8460 fluorescence intensity (a.u.)
17,AGAGAATTCAGGGGCCAGCTAATATACTTGATTTTCTTCCCGGAGTCACCTAGTGCAG,8420 fluorescence intensity (a.u.)
18,AAGATTTGCTGGGAGGGTGGGGTGGGGATTAGTCCCTAAACGGAGTCACCTAGTGCAG,24500 fluorescence intensity (a.u.)
19,GGTCACATGTAGGCCTCATTTCCATTCCAGCCCAACATTTCGGAGTCACCTAGTGCAG,8670 fluorescence intensity (a.u.)
20,GGGGTGTCGTCGTTCGTCCTACCGCTTCCGCCGCATCCTGCGGAGTCACCTAGTGCAG,11200 fluorescence intensity (a.u.)
21,GAGTCGGGGTGGGCTGGCGGTCGAGATGACGCAAGCGACGCGGAGTCACCTAGTGCAG,11000 fluorescence intensity (a.u.)

row,Sequence,binding signal
1,TACAGCACACGACTTAATTGCATGCCACCCAGATTATGACCGGAGTCACCTAGTGCAG,9180 fluorescence intensity (a.u.)
2,TTTTTTTTTACTGCTGCCTCTCAATTTGAGTCCCTGTTAACGGAGTCACCTAGTGCAG,8800 fluorescence intensity (a.u.)
3,TGGGTGTTACATCGGACGTTTGACCGGATGTCGGAAGGGGCGGAGTCACCTAGTGCAG,9260 fluorescence intensity (a.u.)
4,AACACAATTACTCAGATCCACCGGGACCACCACCGTCCACCGGAGTCACCTAGTGCAG,8340 fluorescence intensity (a.u.)
5,CCCTCGAATCCCGCGCCTGCACCGAGTGCCTGACCACAACCGGAGTCACCTAGTGCAG,9140 fluorescence intensity (a.u.)
6,TTTTCGGTTTCGGGTTGTTTATTTGGATATCCGAGTTTATCGGAGTCACCTAGTGCAG,8060 fluorescence intensity (a.u.)
7,TTTGCGTTGCGGGGAGAGGGATATTAAAGGCAAAGGATACCGGAGTCACCTAGTGCAG,8240 fluorescence intensity (a.u.)
8,CCGTATATCCGCTTACGTCACCTCGCTGCTTGGCCTTGTTCGGAGTCACCTAGTGCAG,10000 fluorescence intensity (a.u.)
9,ACCGTTGAATTTTAGATATAAGTTTGACTATTCATCTTATCGGAGTCACCTAGTGCAG,9130 fluorescence intensity (a.u.)
10,GATATGTAGATGGTGACTACAAGATTCTTTTCTTCTTTTTCGGAGTCACCTAGTGCAG,10100 fluorescence intensity (a.u.)
11,TGACCCCACAATCGTCCCACACCAAGCTCACAAGTCCCAACGGAGTCACCTAGTGCAG,9680 fluorescence intensity (a.u.)
12,AGTCACACCAGCATTTGCTAATTGGCTGCTCATCTGCTGTCGGAGTCACCTAGTGCAG,8870 fluorescence intensity (a.u.)
13,ATCCATCCGAGCTCTCTCTCTCTCTCTGTCTTCTCTCTACCGGAGTCACCTAGTGCAG,10700 fluorescence intensity (a.u.)
14,GACCATTGACCAAATAAACCTTCGCTATTGGTTGATTTGTCGGAGTCACCTAGTGCAG,8720 fluorescence intensity (a.u.)
15,ACGCCCGCGGACTTTTGACCACCGACGCGATGTCAACCTCCGGAGTCACCTAGTGCAG,8210 fluorescence intensity (a.u.)
16,TGTTGGTCAATTTGGCGTTGCCGTAATGATATGGTTTTTACGGAGTCACCTAGTGCAG,9640 fluorescence intensity (a.u.)
17,TTATTATGACCATTTTTTGACTTTATGCAATTTAGCCCCTCGGAGTCACCTAGTGCAG,8100 fluorescence intensity (a.u.)
18,CCACATCACCAACAACTCTCGCCGCCTCACACTCGCAGATCGGAGTCACCTAGTGCAG,9460 fluorescence intensity (a.u.)
19,GTACGACCAATTTCCGTTTCATCATCATGTCGGGCAGTAACGGAGTCACCTAGTGCAG,9590 fluorescence intensity (a.u.)
20,TGTTCTTGGCTGCTGGTCTTAGTTTTTGGCTGTCATGTATCGGAGTCACCTAGTGCAG,11100 fluorescence intensity (a.u.)
21,GCGCGCGTCCCGTCACGTCTTTTCTCCTCGCCTATATGCCCGGAGTCACCTAGTGCAG,9050 fluorescence intensity (a.u.)
